Among the data in paper PMC4195880 are binding values, retold here.

The chains behind the UniProt entries cited, without tags or fusion partners.
UniProt P29994: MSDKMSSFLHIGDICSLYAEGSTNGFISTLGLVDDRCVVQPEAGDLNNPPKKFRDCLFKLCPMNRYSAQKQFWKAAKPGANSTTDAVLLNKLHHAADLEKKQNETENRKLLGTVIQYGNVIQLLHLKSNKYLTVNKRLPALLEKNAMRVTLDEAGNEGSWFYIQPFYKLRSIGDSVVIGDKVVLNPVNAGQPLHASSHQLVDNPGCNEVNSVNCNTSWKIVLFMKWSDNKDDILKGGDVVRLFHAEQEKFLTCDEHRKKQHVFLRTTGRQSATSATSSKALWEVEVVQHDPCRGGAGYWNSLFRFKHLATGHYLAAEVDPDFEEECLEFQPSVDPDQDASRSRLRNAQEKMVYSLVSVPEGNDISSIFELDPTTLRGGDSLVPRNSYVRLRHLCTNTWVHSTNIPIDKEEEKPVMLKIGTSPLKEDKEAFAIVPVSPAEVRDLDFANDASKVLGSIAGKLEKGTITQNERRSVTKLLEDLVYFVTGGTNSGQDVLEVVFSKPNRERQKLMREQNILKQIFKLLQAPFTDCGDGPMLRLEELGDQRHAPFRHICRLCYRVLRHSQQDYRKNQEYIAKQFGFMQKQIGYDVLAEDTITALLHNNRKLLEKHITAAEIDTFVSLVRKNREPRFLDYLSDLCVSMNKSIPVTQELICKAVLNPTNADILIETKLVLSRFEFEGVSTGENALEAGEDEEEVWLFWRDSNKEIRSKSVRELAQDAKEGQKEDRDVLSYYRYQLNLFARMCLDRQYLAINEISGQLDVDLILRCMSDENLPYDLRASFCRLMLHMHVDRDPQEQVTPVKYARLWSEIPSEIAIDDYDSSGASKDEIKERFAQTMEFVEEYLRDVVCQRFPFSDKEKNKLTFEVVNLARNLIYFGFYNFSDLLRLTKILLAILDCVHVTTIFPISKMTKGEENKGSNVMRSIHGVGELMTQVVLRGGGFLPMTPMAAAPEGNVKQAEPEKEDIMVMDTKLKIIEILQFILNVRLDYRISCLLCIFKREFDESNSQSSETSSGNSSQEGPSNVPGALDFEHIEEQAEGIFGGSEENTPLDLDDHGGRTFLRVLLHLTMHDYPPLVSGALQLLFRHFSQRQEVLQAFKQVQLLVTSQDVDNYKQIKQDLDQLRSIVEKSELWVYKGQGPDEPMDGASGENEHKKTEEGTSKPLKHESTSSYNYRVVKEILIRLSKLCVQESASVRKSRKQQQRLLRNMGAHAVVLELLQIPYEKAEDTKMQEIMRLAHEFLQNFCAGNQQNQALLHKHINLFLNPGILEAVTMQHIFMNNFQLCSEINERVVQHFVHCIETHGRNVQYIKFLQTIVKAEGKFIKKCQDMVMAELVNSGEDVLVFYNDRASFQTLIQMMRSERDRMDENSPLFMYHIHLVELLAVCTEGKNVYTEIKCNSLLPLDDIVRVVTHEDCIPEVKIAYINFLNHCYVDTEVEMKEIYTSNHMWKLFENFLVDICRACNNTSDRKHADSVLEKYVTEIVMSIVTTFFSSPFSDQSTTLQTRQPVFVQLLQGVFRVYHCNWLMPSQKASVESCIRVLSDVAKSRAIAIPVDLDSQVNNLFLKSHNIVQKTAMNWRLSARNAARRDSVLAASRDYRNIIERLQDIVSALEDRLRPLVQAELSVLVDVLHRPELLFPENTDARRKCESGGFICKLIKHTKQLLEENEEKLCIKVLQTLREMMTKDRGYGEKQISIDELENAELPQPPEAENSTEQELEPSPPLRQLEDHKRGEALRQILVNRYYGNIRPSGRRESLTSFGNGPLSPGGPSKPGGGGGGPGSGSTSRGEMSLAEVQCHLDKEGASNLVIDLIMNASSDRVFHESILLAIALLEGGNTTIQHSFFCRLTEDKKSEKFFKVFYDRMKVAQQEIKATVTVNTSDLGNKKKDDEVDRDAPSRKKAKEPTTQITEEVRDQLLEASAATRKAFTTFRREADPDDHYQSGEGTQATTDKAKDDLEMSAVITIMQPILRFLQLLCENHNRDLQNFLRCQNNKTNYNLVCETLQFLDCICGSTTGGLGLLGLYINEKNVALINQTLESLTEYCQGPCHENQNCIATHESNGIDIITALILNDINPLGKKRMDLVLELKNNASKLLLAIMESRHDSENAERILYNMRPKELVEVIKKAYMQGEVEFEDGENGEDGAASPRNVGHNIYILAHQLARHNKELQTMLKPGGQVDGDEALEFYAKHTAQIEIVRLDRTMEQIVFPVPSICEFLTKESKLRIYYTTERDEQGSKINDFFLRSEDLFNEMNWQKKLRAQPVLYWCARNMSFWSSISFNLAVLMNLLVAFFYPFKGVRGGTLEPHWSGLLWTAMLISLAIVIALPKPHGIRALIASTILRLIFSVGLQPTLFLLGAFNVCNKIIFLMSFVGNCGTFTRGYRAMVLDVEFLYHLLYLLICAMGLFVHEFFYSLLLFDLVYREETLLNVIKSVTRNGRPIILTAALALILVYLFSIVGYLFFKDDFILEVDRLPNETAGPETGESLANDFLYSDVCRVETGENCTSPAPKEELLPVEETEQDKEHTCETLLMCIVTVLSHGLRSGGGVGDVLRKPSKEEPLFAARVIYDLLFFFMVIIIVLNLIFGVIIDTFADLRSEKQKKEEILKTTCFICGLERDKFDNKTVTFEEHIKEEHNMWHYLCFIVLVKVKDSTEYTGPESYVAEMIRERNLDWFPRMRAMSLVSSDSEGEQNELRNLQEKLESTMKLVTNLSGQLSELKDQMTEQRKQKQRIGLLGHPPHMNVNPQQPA
UniProt Q63269: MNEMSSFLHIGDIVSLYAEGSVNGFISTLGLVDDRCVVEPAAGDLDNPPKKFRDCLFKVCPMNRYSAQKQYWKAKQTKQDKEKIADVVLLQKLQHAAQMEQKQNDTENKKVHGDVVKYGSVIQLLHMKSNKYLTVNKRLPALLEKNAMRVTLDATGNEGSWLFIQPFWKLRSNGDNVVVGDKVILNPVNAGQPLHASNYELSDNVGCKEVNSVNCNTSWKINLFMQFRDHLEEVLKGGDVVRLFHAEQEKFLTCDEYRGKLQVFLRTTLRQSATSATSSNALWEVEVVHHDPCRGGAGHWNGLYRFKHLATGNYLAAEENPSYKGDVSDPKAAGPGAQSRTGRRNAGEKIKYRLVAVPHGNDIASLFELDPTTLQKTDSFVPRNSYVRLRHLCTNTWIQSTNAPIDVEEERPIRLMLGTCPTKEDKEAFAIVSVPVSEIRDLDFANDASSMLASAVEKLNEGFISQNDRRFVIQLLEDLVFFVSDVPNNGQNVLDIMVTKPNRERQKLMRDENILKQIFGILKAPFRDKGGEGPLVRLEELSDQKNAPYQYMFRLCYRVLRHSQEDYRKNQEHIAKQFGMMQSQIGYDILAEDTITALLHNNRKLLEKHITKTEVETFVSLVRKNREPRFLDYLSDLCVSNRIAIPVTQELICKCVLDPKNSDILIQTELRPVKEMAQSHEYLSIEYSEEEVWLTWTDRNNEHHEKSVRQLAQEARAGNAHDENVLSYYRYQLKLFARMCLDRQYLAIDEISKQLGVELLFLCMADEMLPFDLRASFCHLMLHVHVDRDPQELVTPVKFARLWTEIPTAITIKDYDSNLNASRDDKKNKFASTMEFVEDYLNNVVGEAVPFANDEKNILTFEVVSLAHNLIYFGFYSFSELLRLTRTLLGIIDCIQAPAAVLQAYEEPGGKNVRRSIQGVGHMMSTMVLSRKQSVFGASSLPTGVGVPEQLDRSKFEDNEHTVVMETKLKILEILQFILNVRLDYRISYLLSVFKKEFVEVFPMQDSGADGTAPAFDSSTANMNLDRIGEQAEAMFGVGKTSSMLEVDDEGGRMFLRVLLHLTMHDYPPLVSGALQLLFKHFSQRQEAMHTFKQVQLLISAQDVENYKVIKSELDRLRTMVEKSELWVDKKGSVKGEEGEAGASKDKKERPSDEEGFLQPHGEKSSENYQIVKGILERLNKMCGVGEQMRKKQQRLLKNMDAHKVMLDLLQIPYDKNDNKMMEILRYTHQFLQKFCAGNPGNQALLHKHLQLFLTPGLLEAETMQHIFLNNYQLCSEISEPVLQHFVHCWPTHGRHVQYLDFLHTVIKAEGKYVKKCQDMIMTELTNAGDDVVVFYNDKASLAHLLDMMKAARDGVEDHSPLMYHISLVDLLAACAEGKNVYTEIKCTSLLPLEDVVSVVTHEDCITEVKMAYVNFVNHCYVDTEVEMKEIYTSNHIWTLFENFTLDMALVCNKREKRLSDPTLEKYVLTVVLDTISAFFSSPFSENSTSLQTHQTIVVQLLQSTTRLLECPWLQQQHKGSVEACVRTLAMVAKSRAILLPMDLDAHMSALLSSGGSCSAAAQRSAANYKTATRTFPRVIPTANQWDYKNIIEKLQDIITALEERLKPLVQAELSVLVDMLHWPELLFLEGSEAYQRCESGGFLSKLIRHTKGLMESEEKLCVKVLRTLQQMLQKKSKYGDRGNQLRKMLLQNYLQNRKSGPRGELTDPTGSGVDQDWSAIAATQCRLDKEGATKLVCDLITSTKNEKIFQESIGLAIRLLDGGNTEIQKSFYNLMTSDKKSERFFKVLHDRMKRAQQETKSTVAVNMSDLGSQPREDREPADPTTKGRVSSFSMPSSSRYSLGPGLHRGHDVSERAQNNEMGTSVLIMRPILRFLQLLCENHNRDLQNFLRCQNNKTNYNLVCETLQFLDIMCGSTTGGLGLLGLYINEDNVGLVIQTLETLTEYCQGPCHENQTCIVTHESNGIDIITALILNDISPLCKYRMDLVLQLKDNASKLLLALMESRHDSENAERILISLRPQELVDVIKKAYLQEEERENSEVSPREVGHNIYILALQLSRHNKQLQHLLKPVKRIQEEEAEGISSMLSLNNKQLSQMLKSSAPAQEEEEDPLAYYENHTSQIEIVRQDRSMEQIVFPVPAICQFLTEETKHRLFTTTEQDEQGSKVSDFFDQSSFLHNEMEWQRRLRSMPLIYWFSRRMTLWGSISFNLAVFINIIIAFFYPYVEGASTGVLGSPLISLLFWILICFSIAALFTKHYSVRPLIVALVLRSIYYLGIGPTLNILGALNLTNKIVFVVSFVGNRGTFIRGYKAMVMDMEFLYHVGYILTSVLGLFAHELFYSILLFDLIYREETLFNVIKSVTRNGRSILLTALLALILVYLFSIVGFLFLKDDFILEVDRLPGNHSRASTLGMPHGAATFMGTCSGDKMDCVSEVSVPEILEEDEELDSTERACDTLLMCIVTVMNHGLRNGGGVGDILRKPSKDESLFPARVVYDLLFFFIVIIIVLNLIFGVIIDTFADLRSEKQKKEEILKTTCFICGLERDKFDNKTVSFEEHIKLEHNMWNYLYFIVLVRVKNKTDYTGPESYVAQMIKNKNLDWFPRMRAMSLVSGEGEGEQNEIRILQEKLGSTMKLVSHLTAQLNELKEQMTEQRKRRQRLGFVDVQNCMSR
UniProt P08050: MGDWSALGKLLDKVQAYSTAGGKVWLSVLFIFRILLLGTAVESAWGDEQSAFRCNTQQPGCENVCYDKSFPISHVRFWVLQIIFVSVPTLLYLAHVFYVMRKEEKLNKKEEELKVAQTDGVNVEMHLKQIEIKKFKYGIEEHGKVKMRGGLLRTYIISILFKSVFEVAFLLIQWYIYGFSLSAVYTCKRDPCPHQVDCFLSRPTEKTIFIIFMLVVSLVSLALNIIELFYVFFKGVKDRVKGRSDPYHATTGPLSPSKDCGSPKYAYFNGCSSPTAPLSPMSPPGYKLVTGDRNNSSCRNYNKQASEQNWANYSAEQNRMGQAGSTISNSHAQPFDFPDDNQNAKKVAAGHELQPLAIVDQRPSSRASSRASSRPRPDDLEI

The target of test [1] is Inositol 1,4,5-trisphosphate receptor isoform 1 (neonatal rat ventricular myocytes) (rat (endogenous in neonatal rat ventricular myocytes)) (UniProt P29994). Put plainly: co-IP; solubilized lysates of homogenized NRVMs; immunoprecipitation with anti-Cx43, anti-pan-IP3R or anti-IP3R isoform antibodies; western blot with anti-Cx43 or anti-pan-IP3R antibody.
The target in test [2] is Inositol 1,4,5-trisphosphate receptor isoform 3 (neonatal rat ventricular myocytes) (rat (endogenous in neonatal rat ventricular myocytes)) (UniProt Q63269). The description is as above.

No constants are given. Whether binding was seen depends on the method and setting. In cells and extracts the contact can be indirect. Some results given as binding are weak or reduced against the parent protein; the word gives no strength.

For “Connexin 43 (neonatal rat ventricular myocytes) (from UniProt P08050 1-382)”, the binding entry in test [1] and in test [2] was “binds” each time.
